# From PubChem BioAssay (Tox21)
# Protein sequences, listed by entry. Tags and fused reporters are not part of them.
# UniProt P28223, whole entry: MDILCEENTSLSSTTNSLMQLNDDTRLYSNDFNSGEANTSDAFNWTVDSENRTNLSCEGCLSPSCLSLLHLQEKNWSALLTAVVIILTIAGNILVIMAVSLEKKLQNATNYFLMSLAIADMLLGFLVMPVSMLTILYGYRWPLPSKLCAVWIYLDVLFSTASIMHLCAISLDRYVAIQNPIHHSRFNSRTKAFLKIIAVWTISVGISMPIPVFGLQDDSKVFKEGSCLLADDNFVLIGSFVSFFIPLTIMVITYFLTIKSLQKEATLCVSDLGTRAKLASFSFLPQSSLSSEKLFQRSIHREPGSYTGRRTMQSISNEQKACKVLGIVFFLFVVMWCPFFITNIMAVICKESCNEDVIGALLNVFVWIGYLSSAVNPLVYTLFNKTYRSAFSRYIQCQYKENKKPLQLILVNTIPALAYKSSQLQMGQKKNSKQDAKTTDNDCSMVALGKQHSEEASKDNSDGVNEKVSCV
# UniProt P11229, whole entry: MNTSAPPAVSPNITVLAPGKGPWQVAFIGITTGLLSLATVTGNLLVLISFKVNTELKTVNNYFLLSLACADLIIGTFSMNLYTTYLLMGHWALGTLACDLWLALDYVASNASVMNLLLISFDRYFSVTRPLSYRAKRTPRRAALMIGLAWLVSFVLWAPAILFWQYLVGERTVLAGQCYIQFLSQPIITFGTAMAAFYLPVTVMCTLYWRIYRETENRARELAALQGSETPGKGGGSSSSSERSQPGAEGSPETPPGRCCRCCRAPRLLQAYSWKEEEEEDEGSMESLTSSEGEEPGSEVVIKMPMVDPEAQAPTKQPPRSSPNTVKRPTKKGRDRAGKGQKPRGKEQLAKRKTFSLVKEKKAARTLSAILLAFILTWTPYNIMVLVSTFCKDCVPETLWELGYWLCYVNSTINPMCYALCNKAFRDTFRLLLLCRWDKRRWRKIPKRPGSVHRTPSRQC
# UniProt P14416, whole entry: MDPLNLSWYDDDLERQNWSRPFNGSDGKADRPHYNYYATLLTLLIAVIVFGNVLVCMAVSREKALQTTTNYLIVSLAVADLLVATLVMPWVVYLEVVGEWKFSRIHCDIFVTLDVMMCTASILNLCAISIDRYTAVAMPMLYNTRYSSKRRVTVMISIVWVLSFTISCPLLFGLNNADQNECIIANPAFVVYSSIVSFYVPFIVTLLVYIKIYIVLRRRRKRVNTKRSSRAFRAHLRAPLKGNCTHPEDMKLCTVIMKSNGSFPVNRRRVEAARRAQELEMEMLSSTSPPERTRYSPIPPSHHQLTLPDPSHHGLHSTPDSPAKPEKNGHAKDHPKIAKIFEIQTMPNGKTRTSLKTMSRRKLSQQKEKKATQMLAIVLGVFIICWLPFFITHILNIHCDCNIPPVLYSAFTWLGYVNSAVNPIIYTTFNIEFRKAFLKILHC
# Several values for one entry are separate records, joined by “and”; a condition that tells them apart may be missing. Identical values can stand only once. These results got no clear call from the source, so the numbers are uncertain. Unless noted, calls come from the whole dose curve.
# Assays:
# [1] = Nuclear factor erythroid 2-related factor 2/antioxidant responsive element (Nrf2/ARE) small molecule agonists: luciferase reporter gene qHTS assay in human keratinocytes (AID 1919969); settings: KeratinoSens HaCaT ARE-luciferase, luminescence, 24 h; note: nearly all actives have a fitted effect of over 35% in size
# Excerpt: (§1) National Center for Advancing Translational Sciences [NCATS]
# (§2) Division of Preclinical Innovation [DPI]
# (§3) U.S. Environmental Protection Agency [EPA]
# (§4) National Institutes of Environmental Health Sciences [NIEHS]
# (§5) National Toxicology Program [NTP]
# (§6) U.S. Food and Drug Administration [FDA]
# Oxidative stress has been implicated in the pathogenesis of a variety of diseases ranging from cancer to neurodegeneration. The antioxidant response element (ARE) signaling pathway plays an important role in the amelioration of oxidative stress. The KeratinoSens (Givaudan, Switzerland) is an in vitro test method which quantifies luciferase induction as a measure of activation of Keap1-Nrf2-antioxidationt/electrophile response element (ARE) dependant pathway in HaCaT human keratinocytes stably transfected with a selectable plasmid. […] The activation of the report gene under culture conditions can be detected by ONE-Glo Luciferase Assay System (Promega, Madison, WI). […]
# HaCaT derived cell line KeratinoSens were dispensed at 1,500 cells/5uL/well in 1536-well white wall/solid bottom plates using a Multidrop Combi (ThermoFisher Scientific, Waltham, MA) dispenser. […] The plates were incubated at 37 C/5% CO2 for 23 h, followed by addition of 1uL/well of CellTiter-Fluor reagent into the assay plates using a Flying Reagent Dispenser (Aurora Discovery, San Diego, CA) for cell viability readout that measures cytotoxicity. […]
# [2] = G protein-coupled receptor (GPCR) small molecule agonists, calcium flux assay: HEK293 wild type cell line counter screen (AID 1920065); settings: HEK293 WT calcium flux, fluorescence, agonist mode
# Excerpt: U.S. Tox21 Program National Center for Advancing Translational Sciences [NCATS] Division of Preclinical Innovation [DPI] U.S. Environmental Protection Agency [EPA] National Institutes of Environmental Health Sciences [NIEHS] National Toxicology Program [NTP] U.S. Food and Drug Administration [FDA] Assay overview: The increased intracellular calcium release that occurred upon G protein-coupled receptor (GPCR) activation led to the frequent use of calcium flux assays to detect GPCR activation. For the purpose of studying and screening compounds that may activate GPCR, receptor-overexpressing models were typically generated using Hek293 wild-type (WT) cells. In order to eliminate the compounds that may have induced calcium release for non-specific activation, a counter-assay utilizing calcium flux on Hek293 WT cells was performed. […] Fluorescence intensity can be utilized to determine the activation of the compound in a calcium flux assay. […]
# Assay Protocol Summary: Hek293 cells were dispensed at 1500cells/4uL/well in 1536-well black wall/clear bottom plates using a multidrop dispenser. […] The fluorescence intensity in the plates was measured using FDSS 7000EX kinetic plate reader with a filter set of Ex/Em=480/540 for 3 min at 1 sec intervals. Each test compound was measured at 15 concentrations and in triplicates.
# [3] = p53 small molecule agonists, cell-based qHTS assay with human liver microsomes (AID 1963577); settings: HCT-116 p53RE-bla with human liver microsomes, ratio, 16 h
# Excerpt: as §1, §2, §3, §4, §5, §6
# (§7) p53, a tumor suppressor protein, is activated following cellular insult, including DNA damage and other cellular stresses. The activation of p53 regulates cell fate by inducing DNA repair, cell cycle arrest, apoptosis, or cellular senescence. The activation of p53, therefore, is a good indicator of DNA damage and other cellular stresses. […] The activation of the reporter gene under culture conditions can be detected by fluorescence intensity.
# (§8) Tox21 Assay Protocol Summary:
# The p53RE-bla cells were dispensed at 4,000cells/3ul/well in 1536-well black-clear bottom plates. After the assay plates were incubated at 37 C, 5% CO2 incubator for 5 hours, 23 nL of compounds dissolved in DMSO, positive controls or DMSO only was transferred to the assay plate. Following compound addition, 3 uL of human liver microsomes (XenoTech, Kansas City, KS) at final concentration of 0.5 mg/mL and 1uL of Beta-Nicotinamide adenine dinucleotide 2-phosphate (NADPH) at final concentration of 0.5 mg/mL were transferred to the assay plate. The plates were incubated at 37 C for 16 hours. […]
# [4] = p53 small molecule agonists, cell-based qHTS assay with rat liver microsomes (AID 1963578); settings: HCT-116 p53RE-bla, beta-lactamase ratio, 16 h
# Excerpt: U.S. Tox21 Program National Center for Advancing Translational Sciences [NCATS] Division of Preclinical Innovation [DPI] U.S. Environmental Protection Agency [EPA] National Institutes of Environmental Health Sciences [NIEHS] National Toxicology Program [NTP] U.S. Food and Drug Administration [FDA] Tox21 Assay Overview: p53, a tumor suppressor protein, is activated following cellular insult, including DNA damage and other cellular stresses. The activation of p53 regulates cell fate by inducing DNA repair, cell cycle arrest, apoptosis, or cellular senescence. The activation of p53, therefore, is a good indicator of DNA damage and other cellular stresses. […] The activation of the reporter gene under culture conditions can be detected by fluorescence intensity. This cell line was used to screen the Tox21 10K compound library in the condition of presence of rat liver microsomes and to identify agonists that activate the p53 signaling pathway after in vitro metabolic activation (Ooka et al., Archive of Toxicology 96:1975-1987, 2022).
# Tox21 Assay Protocol Summary: The p53RE-bla cells were dispensed at 4,000cells/3ul/well in 1536-well black-clear bottom plates. After the assay plates were incubated at 37 C, 5% CO2 incubator for 5 hours, 23 nL of compounds dissolved in DMSO, positive controls or DMSO only was transferred to the assay plate. […]
# [5] = p53 small molecule agonists, cell-based qHTS assay: qHTS cell viability counter screen (AID 1963581); settings: p53RE-bla HCT-116 viability, ATP luminescence, 16 h; note: nearly all actives have a fitted effect of over 45% in size
# Excerpt: as §1, §2, §3, §4, §5, §6
# as §7, with “intensity. […]” for “intensity.”
# The p53RE-bla cells were dispensed at 4,000 cells/5 ul/well in 1536-well black wall/clear bottom plates using a Multidrop dispenser. […] After 1 uL of LiveBLAzerTM B/G FRET substrate was added using a Flying Reagent Dispenser, the plates were incubated at room temperature for 2 hours, and fluorescence intensity was measured by an Envision plate reader. For cell viability readout that measures cytotoxicity, 4 ul/well of CellTiter-Glo reagent was added into the assay plates using a Flying Reagent Dispenser. After 30 min incubation at room temperature, the luminescence intensity in the plates was measured using a ViewLux plate reader.
# [6] = target: 5-hydroxytryptamine receptor 2A (Homo sapiens) (UniProt P28223); experiment: 5-hydroxytryptamine receptor 2A (HTR2A) small molecule agonists, cell-based qHTS assay (AID 1963587); settings: HTR2A-CHO cells, calcium flux fluorescence, agonist mode; note: nearly all actives have a fitted effect of over 30% in size
# Excerpt: as §1, §2, §3, §4, §5, §6
# The HTR2A receptor is a subtype of the 5-HT2 receptor that belongs to the serotonin receptor family and is a G protein-coupled receptor (GPCR). The HTR2A-CHO cell line stably expressing human 5-hydroxytryptamine receptor 2A (HTR2A) can be used for screening agonists of interactions between 5-HT2 and its ligands. The HTR2A-CHO calcium flux assay is a homogeneous fluorescence-based assay for detecting the intracellular calcium level using FDSS kinetic plate reader system.
# HTR2A-CHO cells were dispensed at 2000 cells/3uL/well in 1536-well black-clear bottom plates using a Multidrop Dispenser. After the assay plates were incubated at a 37 C/5% CO2 incubator for 18 h, 3 uL of Dye Loading Buffer was transferred to the assay plate by a Flying Reagent Dispenser. The assay plates were incubated at 37 C for 1h. For agonist mode, 23 nL of compounds dissolved in DMSO, positive controls or DMSO only was transferred to the assay plate by a pin tool. The fluorescence intensity in the plates was measured using FDSS 7000EX kinetic plate reader for 2 min at 1 sec intervals.
# [7] = target: Muscarinic acetylcholine receptor M1 (Homo sapiens) (UniProt P11229); experiment: Cholinergic receptor muscarinic 1 (CHRM1) small molecule agonists, cell-based qHTS assay (AID 1963589); settings: CHRM1-CHO cells, agonist mode, calcium flux fluorescence; note: nearly all actives have a fitted effect of over 35% in size
# Excerpt: as §1, §2, §3, §4, §5, §6
# The CHRM1 is a muscarinic receptor. This receptor plays a crucial role in learning and memory processes and has long been identified as a promising therapeutic target for the improvement of cognitive decline in Alzheimer's disease (AD). The CHRM1-CHO cell line stably expressing human muscarinic acetylcholine receptor M1 (CHRM1) can be used for screening agonists and antagonists of interactions between CHRM1 and its ligands. The CHRM1-CHO Calcium Flux Assay is a homogeneous fluorescence-based assay for detecting the intracellular calcium level using FDSS kinetic plate reader system.
# CHRM1-CHO cells were dispensed at 1000 cells/3uL/well in 1536-well black-clear bottom plates using a Multidrop Dispenser. After the assay plates were incubated at a 37 C/5% CO2 incubator for 18 h, 3 uL of Dye Loading Buffer was transferred to the assay plate by a Flying Reagent Dispenser. […] The fluorescence intensity in the plates was measured using […]. Each test compound was measured at 15 concentrations in three independent runs.
# [8] = target: D(2) dopamine receptor (Homo sapiens) (UniProt P14416); experiment: Dopamine D2 receptor (DRD2) small molecule antagonists, cell-based qHTS assay (AID 1963595; active = well fitted inhibition curve with a large enough effect in the signal ratio in the repeat runs, with a control signal flat; inconclusive = weak or mixed curves, or effect the other way; the % refers to the signal ratio; for activity change, negative = inhibition: % is set by controls: 0 for no effect and ±100 for the full control effect); settings: HEK293-DRD2 cAMP HTRF antagonist mode; activity change, negative = inhibition: at 92.4 µM (top of the series)
# Excerpt: as §1, §2, §3, §4, §5, §6
# DRD2 is the D2 subtype of the dopamine receptor, which is coupled to Gi subtype of G protein-coupled receptor. This G protein-coupled receptor inhibits adenylyl cyclase activity. The DRD2-HEK293 cell line stably expressing D2 dopamine receptor can be used for screening agonists and antagonists of interactions between D2 and its ligands. The Hek293-DRD2 cAMP assay is based on HTRF technology. It measures changes of cAMP accumulation in response to Gi coupled GPCR activation or inhibition.
# as §8
# DRD2-Hek293 cells were dispensed at 600 cells/3uL/well in 1536-well white plates using a Multidrop Dispenser. After the assay plates were incubated at a 37 C/5% CO2 incubator for 24 h, 1 uL of Ro20-1724 at final concentration of 0.1 mM was transferred to the assay plate by a Flying Reagent Dispenser. Following Ro20-1724 addition, 23 nL of compound dissolved in DMSO, positive controls or DMSO only was added to the assay plates via Wako pintool station. […] The fluorescence intensity in the plates was measured at 340 nm excitation and 665 & 620 nm emission by an Envision plate reader.
# Potency is the fitted concentration of half-maximal effect.
smiles,measurement,setting,value
CC(C)OP(C)(=O)OC(C)C,Potency,[1],inconclusive: 27.3 µM
Cc1cc([N+](=O)[O-])cc([N+](=O)[O-])c1O,Potency,[2],inconclusive: 34.7 µM and inconclusive: 38.9 µM
N#CSc1ccc([N+](=O)[O-])cc1[N+](=O)[O-],Potency,[3],inconclusive: 40.8 µM
same,Potency,[4],inconclusive: 18.2 µM
same,Potency,[5],inconclusive: 51.3 µM
O=[N+]([O-])C(Cl)(Cl)Cl,Potency,[6],inconclusive: 43.5 µM
O=C1C2CC=CCC2C(=O)N1SC(Cl)(Cl)C(Cl)Cl (centres undefined),Potency,[7],inconclusive: 27.7 µM
Nc1cc([N+](=O)[O-])cc([N+](=O)[O-])c1O,Potency,[8],inconclusive: 49.6 µM
CCC(=O)N(c1ccccc1)C1(COC)CCN(CCn2nnn(CC)c2=O)CC1,"activity change, negative = inhibition",[8],inconclusive: 1.73%
